In patent publication US10261090B2, “Glutathione-detecting fluorescent probe” (THE UNIVERSITY OF TOKYO, priority 2014, dated 2019):

Assay: Assay by fluorescent probe using FRET
Type: physicochemical
Settings: glutathione addition 1 μM-10 mM; 0.5 μM probe, pH 7.4, excitation 550 nm

Cc1cc(C(=O)NC2CCC(NC(=O)c3ccc(-c4c5ccc(=[N+](C)C)cc-5oc5cc(N(C)C)ccc45)c(C(=O)[O-])c3)CC2)ccc1C1=C2C=CC(=N)C=C2[Si](C)(C)c2cc(N)ccc21 (centres unmarked) [Compound 8, 2Me SiR600-TMR]
fluorescence intensity of the 584 nm peak (donor): increase in the fluorescence intensity of the 584 nm peak | fluorescence intensity of the 615 nm peak (acceptor): decrease in the fluorescence intensity of the 615 nm peak
